Results from PubChem BioAssay AID2685 (National Center for Advancing Translational Sciences (NCATS), 2010).
Some of the results follow. The main result of the screen is listed elsewhere. These columns were measured beside it and carry no call. Compounds called inactive in the main read-out are mostly missing here. The note in brackets gives the kind of curve behind each potency; many fits are weak.

Test: qHTS Assay for Lipid Storage Modulators in Drosophila S3 Cells;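 on cell number change: cells counted by Cell Tracker Red CMTPX staining in the red channel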
Conditions: BODIPY lipid droplet fluorescence, 18-24 h; for cell number change: measured here: cell count max response, cells fed with added oleic acid
Procedure, shortened: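 Drosophila S3 cells got compounds at several concentrations plus oleic acid (400 uM solution). Laser-scanning cytometry with 488 nm excitation read lipid droplets at 500-530 nm and cells at 575-640 nm. Percent activity was relative to 20 uM Triacsin C.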

[1] = measured here: lipid fluorescence (Fed channel) AC50, cells fed with added oleic acid
[2] = measured here: cell number channel AC50, cells fed with added oleic acid

Compound | cell number change [%] | AC50 [1] | AC50 [2]
CC1C(=O)N(Cc2cccc(F)c2)c2ccccc2N1C(=O)c1ccccc1 (stereo not given) | 22 | 29.1 µM [rising, single point] | 
CC(=O)Nc1ccc(S(=O)(=O)N(C)CC(=O)N/N=C/c2ccncc2)cc1 | 41.3 |  | 29.1 µM [rising, single point]
CCOc1ccc(NC(=O)c2ccco2)cc1 | -148 | 29.1 µM [falling, single point] | 18.4 µM [falling, single point]
COc1ccc(C(C(=O)NC2CCCC2)N(C(=O)c2ccco2)c2cc3c(cc2C(C)=O)OCO3)cc1 (stereo not given) | 5.42 |  | 
CC(=O)N1CCc2[nH]c3ccc(C)cc3c2C1 | 22.8 |  | 
CCOc1ncccc1C(=O)N1CCN(S(=O)(=O)c2ccc3c(c2)OCCO3)CC1 | 0.675 | 29.1 µM [falling, single point] | 
CC(C)Oc1ccc(C(=O)/C=C2/C(=O)Nc3ccccc32)cc1 | -50.5 | 23.1 µM [falling, single point] | 18.4 µM [falling, single point]
O=C(Nc1nnc(SCc2ccc(Cl)cc2)s1)c1cnccn1 | 3.61 | 0.13 µM [falling, full curve, poor fit] | 0.00651 µM [falling, full curve, poor fit]
CNc1n[nH]c(=S)s1 | 24.8 |  | 
COc1ccc(-c2cc(C(=O)Nc3cc(C)ccc3O)no2)cc1 | 4.17 | 0.58 µM [rising, single point] | 6.51 µM [rising, single point]
Cc1ccc(C(C#N)c2ccc(Cl)nn2)cc1 (stereo not given) | -40.9 | 23.1 µM [falling, single point] | 20.6 µM [falling, single point]
CCCCNC(=O)/C=C/c1ccc(OC)c(Br)c1 | 98.2 |  | 13 µM [rising, partial curve]
Cc1ccc(N2CC(C(=O)OCc3nc(N)nc(Nc4ccccc4C)n3)CC2=O)cc1 (stereo not given) | -5.82 | 2.06 µM [falling, partial curve, poor fit] | 
Cc1ccc2c(c1)C1CN(C)CCC1N2S(=O)(=O)c1ccccc1F (stereo not given) | 5.91 | 2.06 µM [rising, single point] | 
CC1(C)CC(=O)C(C=Nc2cc(C(=O)c3ccccc3)ccc2N)=C(O)C1 | 75.4 | 25.9 µM [falling, single point] | 8.2 µM [rising, partial curve]
COc1ccccc1CN1CCC(CNS(=O)(=O)c2cc(-c3cc(C)no3)ccc2OC)CC1 | 60.6 | 16.4 µM [rising, partial curve] | 7.31 µM [rising, partial curve]
CCCc1cc(=O)[nH]c(SCC(=O)Nc2c(C)cccc2C)n1 | -0.231 | 23.1 µM [rising, single point] | 
Cc1ccc(S(=O)(=O)N(C)c2ccc(C(=O)N(CC(C)C)C3CCS(=O)(=O)C3)cc2)cc1 (stereo not given) | 70.7 |  | 16.4 µM [rising, partial curve, poor fit]
CCCCc1ccc(NC(=O)COc2ccc(C(=O)Nc3ccccc3C)cc2)cc1 | -40.6 |  | 13 µM [falling, partial curve, poor fit]

Of the compounds above, 3 contain an NH in an aromatic ring:
Compound | cell number change [%] | AC50 [1] | AC50 [2]
CC(=O)N1CCc2[nH]c3ccc(C)cc3c2C1 | 22.8 |  | 
CNc1n[nH]c(=S)s1 | 24.8 |  | 
CCCc1cc(=O)[nH]c(SCC(=O)Nc2c(C)cccc2C)n1 | -0.231 | 23.1 µM [rising, single point] | 

Continued.

Compound | cell number change [%] | AC50 [1] | AC50 [2]
O=C1C=C(NCc2ccc(Cl)c(Cl)c2)C2(CCCCC2)O1 | 9.68 | 9.2 µM [rising, partial curve, poor fit] | 
COc1ccccc1Cc1nc(-c2ccc(Br)o2)no1 | -9.33 |  | 
CCOC(=O)c1ccc(NC(=S)NCc2ccc(S(N)(=O)=O)cc2)cc1 | -9.45 |  | 
CCCCc1ccc(-n2c(Cc3cccs3)n[nH]c2=S)cc1 | 0.691 | 1.16 µM [rising, single point] | 
COc1ccc(N2CC(NS(=O)(=O)c3ccc4ccccc4c3)CC2=O)cc1 (stereo not given) |  | 16.4 µM [rising, partial curve] | 
COc1ccc(CN(C)S(=O)(=O)c2nnc(NC(=O)c3cccc(OC)c3)s2)cc1 | -13 | 0.082 µM [falling, full curve, poor fit] | 
COc1ccc(OCCCCN(C)Cc2ccccc2)cc1 | 20.5 | 29.1 µM [rising, single point] | 
COc1ccc(CNC(=O)CN2C(=O)CSc3ccc(S(=O)(=O)N4CCOCC4)cc32)cc1 | 5.2 | 11.6 µM [rising, single point] | 
CC1(C)Cc2c(C#N)c(N3CCN(C(=O)c4ccccc4)CC3)nc(Cc3ccccc3)c2CO1 |  |  | 4.11 µM [rising, partial curve, poor fit]
O=C(COc1ccc2c3c(c(=O)oc2c1)CCC3)NC1CCN(Cc2ccccc2)CC1 | -0.567 | 29.1 µM [rising, single point] | 
COCCN(CCOC)c1cc(C)c(C#N)c2nc3ccccc3n12 | 2.83 | 6.51 µM [falling, single point] | 
CC(=O)Nc1cc2nn(-c3ccccc3)nc2cc1Cl | 6.69 | 29.1 µM [falling, single point] | 
COc1ccc(C)cc1C(=O)CCC(=O)Nc1ccccc1N1CCOCC1 | 90.4 | 18.4 µM [rising, partial curve] | 25.9 µM [rising, partial curve]
COc1ccc(CN2CCN(Cc3ccc(C(F)(F)F)cc3)CC2)c(OC)c1 | -28.3 | 29.1 µM [falling, single point] | 
CCC(Sc1nc(C)cc(=O)[nH]1)C(=O)Nc1nc(-c2ccccc2)cs1 (stereo not given) | 21.2 | 0.82 µM [rising, full curve, poor fit] | 
COCC(C)NC(=O)c1ccc(N(C)C)cc1 (stereo not given) | 32.3 | 0.651 µM [falling, single point] | 0.291 µM [rising, full curve, poor fit]
COc1ccc(/C=C2\Oc3cc(OCC(N)=O)ccc3C2=O)cc1OC | 5.41 | 29.1 µM [falling, single point] | 
N#Cc1c(N2CCCC2)nc(N)c2c(N)nc(N3CCCC3)cc12 |  |  | 1.64 µM [rising, partial curve]
